Experimental data taken from patent publication US7012082B2, “Method of correcting HERG channel dysfunction” (priority 2002, dated 2006).
Read-outs that look alike come from different tables or passages of the source.

Legend:
clinical = conditions: human, in vivo, po, 60 mg
[1] = healthy volunteers, cited from earlier work
[2] = even in doses that exceed ten-fold recommendations; Pratt, et al., 1999b; cited from earlier work

## CC(C)(C(=O)O)c1ccc(C(O)CCCN2CCC(C(O)(c3ccccc3)c3ccccc3)CC2)cc1 (stereo not shown) [fexofenadine]
clinical
  Cmax: 262 nM
[1]; oral 60 mg
  mean Cmax: 141 ng/mL
[1]; oral 180 mg
  mean Cmax: 494 ng/mL
[2]
  effect on the QT interval on the ECG: not affect the QT interval
